Among all 580,000 compounds or so, about 6,100 (1.1%) were called active. This list was built around the results that the source calls inconclusive (neither active nor inactive); the mix of calls is not that of the screen. Calls follow the shape of the dose curve; as a rule, active = well fitted inhibition curve with a large enough effect; inconclusive = small, poorly fitted or top-dose-only effect, or another doubt; inactive = no such curve, though single readings can be large or run the other way. Where the call is inconclusive, the potency comes from a doubtful curve fit.
molecular target: Polyunsaturated fatty acid lipoxygenase ALOX12 (Homo sapiens) (UniProt P18054); experiment: Primary qHTS assay for inhibitors of human arachidonate 12S-lipoxygenase (ALOX12): Round 2; conditions: purified 12hLO, xylenol orange hydroperoxide absorbance; activity change, negative = inhibition: at 108 µM (top of the series) unless noted
Outline: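 Hydroperoxide product was detected by ferrous iron/xylenol orange as the 573 to 405 nm absorbance ratio. Arachidonic acid at 40 uM (final) was turned over for 30 min at room temperature by 150 nM human 12hLO, pH 7.0 Hepes buffer, after 15 min compound preincubation.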
% is scaled to controls: 0 for no effect and ±100 for the full control effect; potency is read from the fitted curve at half-maximal effect.

The chains behind the UniProt entries cited, without tags or fusion partners.
UniProt P18054, whole entry, looked up: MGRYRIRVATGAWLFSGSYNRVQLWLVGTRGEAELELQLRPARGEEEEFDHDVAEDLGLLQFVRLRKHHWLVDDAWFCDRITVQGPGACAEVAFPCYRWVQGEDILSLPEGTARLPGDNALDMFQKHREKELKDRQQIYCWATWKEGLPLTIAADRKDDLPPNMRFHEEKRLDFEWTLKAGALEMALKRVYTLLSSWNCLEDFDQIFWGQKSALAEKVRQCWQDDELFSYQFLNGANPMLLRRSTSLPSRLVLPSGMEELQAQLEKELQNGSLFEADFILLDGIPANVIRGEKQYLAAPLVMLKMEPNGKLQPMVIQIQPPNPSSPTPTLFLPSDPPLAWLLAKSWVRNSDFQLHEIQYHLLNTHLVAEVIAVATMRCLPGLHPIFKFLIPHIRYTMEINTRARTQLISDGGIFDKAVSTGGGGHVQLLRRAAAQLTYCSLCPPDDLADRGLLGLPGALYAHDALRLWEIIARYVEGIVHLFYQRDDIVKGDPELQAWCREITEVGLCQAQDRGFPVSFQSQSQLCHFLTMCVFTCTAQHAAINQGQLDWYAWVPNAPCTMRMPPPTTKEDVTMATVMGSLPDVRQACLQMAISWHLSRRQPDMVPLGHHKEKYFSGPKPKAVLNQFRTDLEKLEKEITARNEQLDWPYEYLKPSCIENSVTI

| Compound | activity change, negative = inhibition | Potency |
| --- | --- | --- |
| Cc1csc(=O)n1CCC(=O)OCc1nnc(-c2ccccc2Cl)o1 | inactive: 133% |  |
| CCCCn1c(/N=C/c2ccccc2NS(=O)(=O)c2ccc(C)cc2)nc2ccccc21 |  | inconclusive: 31.6 µM [inhibitor, partial curve, poor fit] |
| C[C@H](O)c1onc(-c2ccccc2)c1C(=O)N1CCCCCC1 |  | inconclusive: 89.1 µM [inhibitor, partial curve, poor fit] |
| O=C1NCN(Cc2ccc(Cl)cc2)C12CCN([S+](=O)([O-])c1cccs1)CC2 | inactive: 6.46% |  |
| C/C(=N/Nc1ccc(S(N)(=O)=O)cc1[N+](=O)[O-])c1ccc(Cl)c(Cl)c1Cl |  | inconclusive: 79.4 µM [inhibitor, single point] |
| O=C(CNC(=O)c1nn(Cc2ccccc2)c(=O)c2ccccc12)Nc1ccc(F)c(F)c1F |  | inconclusive: 100 µM [inhibitor, partial curve, poor fit] |
| CC(=O)Nc1c(C)cccc1C(C)C | inactive: 11.4% |  |
| CCCCC1C(=O)N(C)CCN1C(=O)Cn1ncc(N(C)C)cc1=O (stereo unspecified) | inactive: 17.8% |  |
| O=C(CSC(=S)N1CCCC1)N/N=C/c1c(O)[nH]c(=S)[nH]c1=O | inactive: -14.1% |  |
| Oc1ccc(C2C[C@H]3CC[C@@H]2C3)cc1O (stereo partly specified) |  | inconclusive: 3.98 µM [inhibitor, full curve, poor fit] |
| Cc1ccc(S(=O)(=O)N2CCN(C(=O)c3cc(C4CC4)nc4c3cnn4C(C)C)CC2)cc1 |  | inconclusive: 10 µM [inhibitor, partial curve, poor fit] |
| OC(COc1ccc(Cl)cc1Cl)CN1CCc2ccccc2C1 (stereo unspecified) |  | inconclusive: 44.7 µM [inhibitor, partial curve, poor fit] |
| CC(C)=C1CC[C@H](C)[C@](C)(COc2ccc3ccc(=O)oc3c2)[C@H]1CCC(=O)O |  | inconclusive: 89.1 µM [inhibitor, single point] |
| CCSc1nnc(NC(=O)C2Cc3ccccc3CN2C(=O)c2ccco2)s1 (stereo unspecified) | inactive: -13.7% |  |
| C=CCNC(=S)NN=C1CCCCCCC1 |  | active: 14.1 µM |
| COc1ccc(NC(=O)Nc2cccc(-c3ccc(N4CCC(C)CC4)nn3)c2)cc1OC |  | inconclusive: 89.1 µM [inhibitor, single point] |
| CS(=O)(=O)N1CCC(C(=O)c2cccc(Cl)c2)CC1 |  | inconclusive: 20 µM [inhibitor, full curve, poor fit] |
| CN(CCO)c1cc(N2CCN(C(=O)c3ccco3)CC2)c2nonc2c1[N+](=O)[O-] |  | inconclusive: 25.1 µM [inhibitor, partial curve] |
| Cc1cccc(OC[C@H]2C[C@@H](NC(=O)c3ccccc3)[C@H](O)[C@@H]2O)n1 |  | inconclusive: 39.8 µM [inhibitor, full curve] |
| CN(C)c1ccc(Cc2cc3c(O)ccc(O)c3cc(Cc3ccc(N(C)C)cc3)c2=O)cc1 |  | inconclusive: 3.16 µM [inhibitor, full curve, poor fit] |
| O=c1n(CC2CC2)nc2n1CCN(Cc1ccc3[nH]ccc3c1)CC2 | inactive: 39.5% |  |
| CC(=O)Nc1ccc(-c2csc(NC3CC3)n2)cc1 |  | inconclusive: 50.1 µM [inhibitor, partial curve, poor fit] |

| Compound | activity change, negative = inhibition | Potency |
| --- | --- | --- |
| COc1ccc(CNCc2ccc(OC)c3ccccc23)cc1 |  | inconclusive: 3.98 µM [inhibitor, full curve, poor fit] |
| CCOC(=O)Cc1nnc(NC(=O)C(CC)Sc2nc(C)cc(=O)[nH]2)s1 (stereo unspecified) | inactive: -24.8% |  |
| CC(C)(C)OC(=O)N1CCCC1C(=O)NCc1cccc(Cl)c1 (stereo unspecified) | inactive: -1.61% |  |
| Cc1cccc(CN2CCN(C(C)C(=O)NC(C)c3ccccc3)CC2)c1 (stereo unspecified) |  | inconclusive: 1.12 µM [inhibitor, full curve, poor fit] |
| O=C(O)COc1ccccc1/C=N/NC(=O)c1cc(-c2ccc(Cl)cc2)nc2ccccc12 |  | inconclusive: 2.82 µM [inhibitor, full curve, poor fit] |
| CCc1ccc(S(=O)(=O)N/N=C(/C)c2ccncc2)cc1 |  | inconclusive: 22.4 µM [inhibitor, partial curve] |
| O=C(CSc1ccsc1[N+](=O)[O-])N1CCN(c2ccccc2)CC1 | inactive: -12.6% |  |
| CCCOc1ccc(/C=C/C(=O)N2CCN(C(=O)c3ccco3)CC2)cc1OC |  | inconclusive: 6.31 µM [inhibitor, full curve, poor fit] |
| NNC(=S)NCc1ccccc1 |  | inconclusive: 28.2 µM [inhibitor, single point] |
| CCCn1ccc2oc(C)c(C(=O)NCc3ccc(OC)cc3)c2c1=O |  | inconclusive: 8.91 µM [inhibitor, partial curve, poor fit] |
| CC(=O)N1CCc2cc(C(=O)CN3CCN(c4cccc(Cl)c4)CC3)ccc21 |  | inconclusive: 126 µM [inhibitor, single point] |
| CCOC(=O)O[C@]1(C(=O)OCCl)CC[C@@H]2[C@H]3CCC4=CC(=O)C=C[C@]4(C)[C@@H]3[C@@H](O)C[C@@]21C |  | inconclusive: 9.68 µM [inhibitor, partial curve, poor fit] |
| O=C1NC(=O)N(Cc2ccccc2)C1=O |  | inconclusive: 31.6 µM [inhibitor, partial curve, poor fit] |
| Cc1ccc(S(=O)(=O)N2CCC(=O)N([C@H](COCc3ccc(Cl)c(Cl)c3)Cc3ccccc3)CC2)cc1 |  | inconclusive: 17.8 µM [inhibitor, partial curve, poor fit] |
| CC(OC(=O)c1cccc(S(=O)(=O)N2CCOCC2)c1)C(=O)c1c[nH]c2ccccc12 (stereo unspecified) |  | inconclusive: 50.1 µM [inhibitor, single point] |
| O=C(Nc1ccc(NC(=O)c2cccs2)c(Cl)c1)c1ccco1 |  | inconclusive: 56.2 µM [inhibitor, partial curve, poor fit] |
| COC(=O)C1=CN(Cc2ccc(C)cc2)C=C(C(=O)OC)C1c1cc(OC)c(OC)c(OC)c1 |  | inconclusive: 100 µM [inhibitor, single point] |
| Cc1ccc(/C=N/n2c(-c3ccc(Cl)cc3)n[nH]c2=S)s1 | inactive: -21.9% |  |
| CC(N(C)c1ccccc1)=[N+](C)c1ccccc1 |  | inconclusive: 22.4 µM [inhibitor, partial curve] |
| CCOC(=O)c1c(C)[nH]c(C(=O)C(C)Sc2ccc(Cl)cc2)c1C (stereo unspecified) | inactive: 11.7% |  |
| COc1ccc(CCNC(=O)c2ccc3c(c2)N(Cc2ccccc2C)C(=O)c2ccccc2S3)cc1OC |  | inconclusive: 39.8 µM [inhibitor, single point] |
| COc1ccccc1NC(=O)CSC1=Nc2ccccc2C2=NC(CC(=O)NCc3cccs3)C(=O)N12 (stereo unspecified) |  | inconclusive: 8.91 µM [inhibitor, single point] |

| Compound | activity change, negative = inhibition | Potency |
| --- | --- | --- |
| Cc1cc(C)nc(N2CCN(c3nc(-c4ccccc4)nc4c3oc3ccccc34)CC2)n1 | inactive: 11% |  |
| N#C/C(=C\C1CC2C=CC1C2)c1nc2ccccc2[nH]1 (stereo unspecified) |  | inconclusive: 7.08 µM [inhibitor, full curve] |
| OCCN1CCN(CCCN2c3ccccc3C=Cc3ccccc32)CC1 |  | inconclusive: 12.6 µM [inhibitor, full curve] |
| Cc1cccc(NC(=O)CSc2nc3ccc(NC(=O)COc4ccccc4F)cc3s2)c1 | inactive: 0% |  |
| CC(=O)c1c(C)[nH]c(C(=O)COc2ccc3ccc(=O)oc3c2)c1C |  | inconclusive: 35.5 µM [inhibitor, partial curve, poor fit] |
| O=C(NC(=O)c1c(F)cccc1F)Nc1ccccc1SC(F)F | inactive: 0% |  |
| COc1cccc(N2C(=O)NC(=NC3CCCCC3)C23CCCN(CC2CCCCC2)C3)c1 (stereo unspecified) |  | inconclusive: 56.2 µM [inhibitor, partial curve, poor fit] |
| COc1cc(CNC2CCCCCC2)cc(OC)c1 | inactive: 3.44% |  |
| CCC(C)NC(=O)CSc1cc(C)c2cc(C)cc(C)c2n1 (stereo unspecified) |  | inconclusive: 50.1 µM [inhibitor, partial curve, poor fit] |
| COc1ccc(CCN(C)C(=O)CSc2ncnc3sccc23)cc1OC | inactive: -0.596% |  |
| COc1ccc(N2C(=S)N(C(=O)c3ccccc3)C(=Nc3ccccc3)C2=Nc2ccccc2)cc1 | inactive: 6.03% |  |
| Cc1nn(-c2ccc(C(C)(C)C)cc2)c(C)c1[C@@H]1C=C[C@@H](NC(=O)CC2(CC(=O)O)CCCC2)C1 |  | inconclusive: 1.26 µM [inhibitor, full curve, poor fit] |
| O=C(O)c1ccccc1Nc1cc(Cl)c2nonc2c1[N+](=O)[O-] |  | inconclusive: 44.7 µM [inhibitor, partial curve, poor fit] |
| CCCc1c(C(=O)Nc2cc(C(C)(C)C)on2)cnn1-c1ccccc1 |  | inconclusive: 112 µM [inhibitor, single point] |
| C=CCNc1nc(NCC=C)nc(N2CCN(C(c3ccc(F)cc3)c3ccc(F)cc3)CC2)n1 |  | inconclusive: 9.07 µM [inhibitor, partial curve] |
| Cc1ccsc1C(=O)OCC(=O)NC(=O)NC1CCCCC1 | inactive: -2.83% |  |
| O=C(Cc1ccccc1)NCC(=O)N1CCN(c2ccc(F)cc2)CC1 | inactive: 1.13% |  |
| Cc1nc(SCC(=O)Nc2sccc2C(N)=O)c2c(C)c(C)sc2n1 |  | inconclusive: 35.5 µM [inhibitor, partial curve] |
| CCN1CCN(c2sc(S(=O)(=O)CC)nc2S(=O)(=O)c2ccc(Cl)cc2)CC1 |  | inconclusive: 2.51 µM [inhibitor, single point] |
| Cc1nc(-c2cn[nH]c2-c2ccc(O)cc2O)cs1 | inactive: -13% |  |
| O=C(c1ccccc1)c1ccc(OCC(O)CNCc2cccc(Cl)c2)cc1 (stereo unspecified) |  | inconclusive: 3.55 µM [inhibitor, full curve, poor fit] |
| Cc1ccc(-n2nc(C(=O)c3ccccc3)n3c(=O)cc(-c4ccccc4)nc23)cc1 |  | inconclusive: 100 µM [inhibitor, partial curve, poor fit] |

Four entries drawn at random from those above:

| Compound | activity change, negative = inhibition | Potency |
| --- | --- | --- |
| CCC(C)NC(=O)CSc1cc(C)c2cc(C)cc(C)c2n1 (stereo unspecified) |  | inconclusive: 50.1 µM [inhibitor, partial curve, poor fit] |
| Cc1cc(C)nc(N2CCN(c3nc(-c4ccccc4)nc4c3oc3ccccc34)CC2)n1 | inactive: 11% |  |
| O=C(NC(=O)c1c(F)cccc1F)Nc1ccccc1SC(F)F | inactive: 0% |  |
| O=C(O)c1ccccc1Nc1cc(Cl)c2nonc2c1[N+](=O)[O-] |  | inconclusive: 44.7 µM [inhibitor, partial curve, poor fit] |

— PubChem BioAssay AID1671190 (National Center for Advancing Translational Sciences (NCATS), 2021)
